Experimental data taken from the supplement of paper PMC12067093, “Discovery and optimisation of a covalent ligand for TRIM25 and its application to targeted protein ubiquitination” (Chemical Science, 2025).
The other results are listed elsewhere or left out.

Compound: CC1Cc2ccccc2N1C(=O)C1CCCN(C1)C(=O)CCl (mixture of isomers) [TRIM25 ligand 11 (diastereomer mixture)]
Assay: probe-labelled cysteine peptide fold change vs DMSO (competition) (log2 fold change); higher = less target engagement (more negative = stronger competition)
Details: THP-1, incubation time: 4 h
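Further: competitive chemoproteomic profiling in live THP-1 cells with an iodoacetamide desthiobiotin (IA-DTB) probe, comparing probe-labelled peptide intensities in compound-treated cells against DMSO-treated controls.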

Row | Target | probe-labelled cysteine peptide fold change (10 µM) | probe-labelled cysteine peptide fold change (50 µM)
1 | CRELD1_Q96HD1_135_QQEAPDLFQWLCSDSLK (UniProt Q96HD1) | 0.141 | 0.167
2 | CRYZ_Q08257_145_ALIHSACVK (UniProt Q08257) | 0.0688 | 0.0591
3 | CTBP2_P56545_60_DLATVAFCDAQSTQEIHEK (UniProt P56545) | -0.0351 | 0.0026
4 | CORO7_P57737_389_VSLNPACR (UniProt P57737) | 0.0924 | 0.103
5 | CSDE1_O75534_53_LFFHCSQYNGNLQDLK (UniProt O75534) | 0.322 | -0.294
6 | CRYZL1_O95825_40_ACALSQINTK (UniProt O95825) | 0.0943 | 0.0296
7 | CTAGE5_O15320_131_EATEAQSLEATCEK (UniProt Q96PC5+O15320) | -0.0982 | 0.048
8 | CORO1A_P31146_345_CEPIAMTVPR (UniProt P31146) | -0.0921 | -0.179
9 | CSDE1_O75534_464_EAEDGIIAYDDCGVK (UniProt O75534) | -0.118 | -0.12
10 | CRACR2A_Q9BSW2-2_494_CSEEEEVSDQGVQGQIPEAPPLK (UniProt Q9BSW2) | -0.0712 | -0.0343
11 | CSE1L_P55060_325_YDLLVSNAIQFLASVCERPHYK (UniProt P55060) | -0.273 | -0.206
12 | COX5B_P10606_93_IVGCICEEDNTSVVWFWLHK (UniProt P10606) | -0.0988 | -0.178
13 | CTNNA1_P35221_772_TIADHCPDSACK (UniProt P35221) | -0.0482 | -0.0902
14 | CRTAP_O75718_84_DSEAFCHR (UniProt O75718) | 0.0823 | 0.257
15 | CPOX_P36551_319_WCDDYFFIAHR (UniProt P36551) | 0.0417 | 0.0223
16 | CPSF2_Q9P2I0_82_LGLNCAIYATIPVYK (UniProt Q9P2I0) | 0.0858 | 0.0113
17 | CTIF_O43310_556_MLCPSESMLTR (UniProt O43310) | -0.134 | -0.0936
18 | CORO1A_P31146_345_RCEPIAMTVPR (UniProt P31146) | -0.109 | -0.0695
19 | CORO2A_Q92828_474_TWLTNGFDVFECPPPK (UniProt Q92828) | 0.0927 | -0.0781
20 | CTAGE5_O15320_579_GPGNPLDHQITNERGESSCDR (UniProt Q96PC5+O15320) | -0.0295 | -0.158
21 | CRTAP_O75718_243_AFYECLAACEGSR (UniProt O75718) | 1.6e-06 | 0.261
22 | CPPED1_Q9BRF8_88_FFVLCGDLIHAMPGKPWR (UniProt Q9BRF8) | -0.127 | -0.14

Row | Target | probe-labelled cysteine peptide fold change (10 µM) | probe-labelled cysteine peptide fold change (50 µM)
23 | CST3_P01034_123_AFCSFQIYAVPWQGTMTLSK (UniProt P01034) | -0.22 | -0.252
24 | CPT2_P23786_639_EFLQCVEK (UniProt P23786) | 0.105 | 0.149
25 | CSDE1_O75534_191_CQGVVCAMK (UniProt O75534) | 0.029 | -0.0446
26 | CPSF3_Q9UKF6_655_TVECEEGSEDDESLREMVELAAQR (UniProt Q9UKF6) | -0.0205 | 0.0979
27 | CSK_P41240_290_SVLGGDCLLK (UniProt P41240) | -0.03 | -0.0513
28 | CPNE2_Q96FN4_265_DSVPLEFECINPK (UniProt Q96FN4) | -0.22 | -0.165
29 | CRBN_Q96SW2_205_CQIFPSKPVSR (UniProt Q96SW2) | 0.172 | 0.295
30 | CSE1L_P55060_842_KICAVGITK (UniProt P55060) | -0.19 | -0.244
31 | COQ9_O75208_153_DGSELILHFVTQCNTR (UniProt O75208) | -0.0441 | 0.03
32 | COX20_Q5RI15_29_LLGFLDVENTPCAR (UniProt Q5RI15) | 0.109 | 0.101
33 | CSTF1_Q05048_402+415_CIVHSPTNPGFMTCSDDFR (UniProt Q05048) | -0.0612 | -0.16
34 | CTBS_Q01459_281_GAPCSDAAGR (UniProt Q01459) | -0.0997 | -0.105
35 | CORO7_P57737_505_GLNLTTPGESDGFCANK (UniProt P57737) | 0.0263 | 0.0442
36 | CPSF4_O95639_110_ECPFLHIDPESK (UniProt O95639) | 0.00281 | 0.0403
37 | CSNK2B_P67870_114_VYCENQPMLPIGLSDIPGEAMVK (UniProt P67870) | -0.0693 | -0.262
38 | CTDNEP1_O95476_161_QHCTLELGSYIK (UniProt O95476) | 0.00639 | 0.0362
39 | COX17_Q14061_45_GEEHCGHLIEAHK (UniProt Q14061) | -0.188 | -0.0542
40 | CORO1A_P31146_285_HLEEPLSLQELDTSSGVLLPFFDPDTNIVYLCGK (UniProt P31146) | -0.00211 | 0.03
41 | CORO1C_Q9ULV4_190_NGSLICTASK (UniProt Q9ULV4) | -0.00932 | 0.131
42 | CSTF2T_Q9H0L4_150_LCVQNSHQEAR (UniProt Q9H0L4) | -0.00373 | -0.0348
43 | CSTF2_P33240_150_LCVQNSPQEAR (UniProt P33240) | 0.0215 | -0.0712
44 | CTDP1_Q9Y5B0_277_DECIDPFSK (UniProt Q9Y5B0) | 0.0916 | -0.121

Row | Target | probe-labelled cysteine peptide fold change (10 µM) | probe-labelled cysteine peptide fold change (50 µM)
45 | CPSF6_Q16630_159_RELHGQNPVVTPCNK (UniProt Q16630) | 0.0106 | -0.112
46 | CRYZL1_O95825_274_HDIITLLGVGGHWVTTEENLQLDPPDSHCLFLK (UniProt O95825) | 0.0843 | 0.0471
47 | CPD_O75976_1140_HLASLYANNHPSMHMGQPSCPNK (UniProt O75976) | 0.221 | -0.368
48 | CPT2_P23786_512_CSEAFVREPSR (UniProt P23786) | -0.197 | -0.0581
49 | CSDE1_O75534_657_FQLCVLGQNAQTMAYNITPLR (UniProt O75534) | 0.0603 | 0.0628
50 | CSTF1_Q05048_415_CIVHSPTNPGFMTCSDDFR (UniProt Q05048) | -0.151 | -0.0772
51 | CRELD1_Q96HD1_343_QMEGICVK (UniProt Q96HD1) | 0.0319 | 0.0193
52 | CTNND1_O60716_516_MEIVDHALHALTDEVIIPHSGWEREPNEDCKPR (UniProt O60716) | -0.0213 | -0.157
53 | CRYZL1_O95825_177_VISTACSLEDK (UniProt O95825) | 0.0726 | 0.107
54 | CSRP1_P21291_34+37_SCFLCMVCK (UniProt P21291) | -0.0675 | 0.146
55 | CSNK2B_P67870_23_GNEFFCEVDEDYIQDK (UniProt P67870) | 0.0176 | -0.0733
56 | CPNE1_Q99829_4+14_AHCVTLVQLSISCDHLIDK (UniProt Q99829) | 0.0618 | -0.184
57 | CRTAP_O75718_247_AFYECLAACEGSR (UniProt O75718) | 0.322 | 0.486
58 | CSTF2T_Q9H0L4_441_GMETCAMETR (UniProt Q9H0L4) | -0.0822 | -0.124
59 | COX5B_P10606_91+93_IVGCICEEDNTSVVWFWLHK (UniProt P10606) | 0.037 | 0.0397
60 | CRYZ_Q08257_45_VHACGVNPVETYIR (UniProt Q08257) | -0.0836 | 0.0644
61 | CTNNBL1_Q8WYA6_408_EHEEHVCSILASLLR (UniProt Q8WYA6) | -0.143 | -0.0712
62 | CRIP1_P50238_56_PYCNHPCYAAMFGPK (UniProt P50238) | -0.356 | -0.291
63 | CPSF1_Q10570_1178_GPVTALCHCNGHLVSAIGQK (UniProt Q10570) | 0.00342 | 0.339
64 | CRLF3_Q8IUI8_336_DSIGVCAEK (UniProt Q8IUI8) | 0.0372 | -0.00931
65 | CPNE3_O75131_54_NCLNPQFSK (UniProt O75131) | -0.0274 | -0.0962
66 | CSDE1_O75534_730_CSACNVWR (UniProt O75534) | 0.0252 | 0.0371

Row | Target | probe-labelled cysteine peptide fold change (10 µM) | probe-labelled cysteine peptide fold change (50 µM)
67 | CRYBG3_Q68DQ2_2762_SLKPIDYVFEEPSISLFALEHCEGR (UniProt Q68DQ2) | 0.233 | -0.0563
68 | CPT1A_P50416_586_FCLTYEASMTR (UniProt P50416) | 0.307 | 0.222
69 | CSE1L_P55060_939_LSTACPGR (UniProt P55060) | 0.0647 | 0.108
70 | CSK_P41240_299_FSLDVCEAMEYLEGNNFVHR (UniProt P41240) | 0.0358 | 0.00314
71 | CSDE1_O75534_464_EKEAEDGIIAYDDCGVK (UniProt O75534) | -0.346 | -0.451
72 | CSDE1_O75534_42_LLTSYGFIQCSER (UniProt O75534) | -0.0145 | 0.0173
73 | CSTF1_Q05048_178_TLYDHVDEVTCLAFHPTEQILASGSR (UniProt Q05048) | 0.0512 | 0.0366
74 | CSK_P41240_422_NCWHLDAAMRPSFLQLR (UniProt P41240) | -0.104 | -0.125
75 | CSDE1_O75534_506_QRPGQQVATCVR (UniProt O75534) | -0.0532 | -0.0997
76 | CTCF_P49711_577_HADNCAGPDGVEGENGGETK (UniProt P49711) | 0.0657 | -0.0244
77 | CSE1L_P55060_344_NLFEDQNTLTSICEK (UniProt P55060) | -0.0761 | -0.057
78 | CTBP2_P56545_44_DCTVEMPILK (UniProt P56545) | 0.04 | -0.15
79 | CRELD2_Q6UXH1_166_QGDGSCR (UniProt Q6UXH1) | 0.14 | 0.183
80 | CTNNA2_P26232_792_IALYCHQLNICSK (UniProt P26232) | -0.0111 | 0.118
81 | CPSF4_O95639_82_KGDQCEFLHEYDMTK (UniProt O95639) | 0.0614 | -0.239
82 | CORO7_P57737_790_TECDVR (UniProt P57737) | -0.0371 | 0.0187
83 | CTNNA1_P35221_461_MSASQLEALCPQVINAALALAAK (UniProt P35221) | 0.00601 | -0.000209
84 | CSDE1_O75534_365_CVDRDVR (UniProt O75534) | 0.392 | 0.311
85 | CPSF1_Q10570_1102_IELQEWEHVTCMK (UniProt Q10570) | 0.0551 | 0.00871
